The subject of this test is HCoV-OC43. More on the design: species or system RD; HTS, protection from HCoV-OC43 induced cell death, luminescent cell viability (CellCounting-Lite 2.0), inhibition rate. To be noted: 24 h post infection, 1 h compound pre-incubation, 10 µM, inhibitor.

SMILES strings stand for the structures. Where a name gives a salt, the structure may show the parent alone. Read-outs that look alike come from different tables or passages of the source. About 60 (2%) of roughly 3,300 compounds showed an effect of 50% or more. Some of the results follow.

41 compounds from publication PMC12431657, “Discovery and mechanistic insights of dibenzoylmethane as a broad spectrum inhibitor of coronavirus” (PLOS Pathogens, 2025) can be followed below.

For the compound `CC(=O)c1c(C)cc2cccc(O)c2c1O` [Nepodin], the “OC43 Inhibition rate” value is -1.8%.
As to `CC(C(O)c1ccc(O)cc1)N1CCC(Cc2ccccc2)CC1` (centres unmarked) [Ifenprodil (tartrate)], the “OC43 Inhibition rate” value is listed as 0.1%.
In the case of `Nc1ncnc2c1ncn2[C@@H]1O[C@H](COP(=O)(O)OP(=O)(O)OP(=O)(O)O)[C@@H](O)[C@H]1O` [ATP (disodium trihydrate)], under “OC43 Inhibition rate, 24 h”, the “OC43 Inhibition rate” value is given as -1.2%.
Take `CC1(C)CC[C@]2(C(=O)O)CC[C@]3(C)C(=CC[C@@H]4[C@@]5(C)C[C@@H](O)[C@H](O)[C@@](C)(CO)[C@@H]5CC[C@]43C)[C@@H]2[C@@H]1O` [Arjungenin]: the “OC43 Inhibition rate” value came out at 0.8%.
The same measure, in the same setting: to `O=c1ccn([C@@H]2O[C@H](COP(=O)(O)OP(=O)(O)O)[C@@H](O)[C@H]2O)c(=O)[nH]1` [Uridine-5'-diphosphate disodium salt] belongs 5.4%.
Still for that read-out and setting: to `COc1cc(O)c2c(=O)c(OC)c(-c3ccc(OC)c(OC)c3)oc2c1` [Retusin] belongs 11.5%.
As to `O=c1cc(-c2ccccc2)oc2ccccc12` [Flavone], the “OC43 Inhibition rate” value is given as 0.3%.
Still for that read-out and setting: to `CN(C)CCc1ccc(O)cc1` [Hordenine] belongs -0.7%; to `C=C1C(=O)O[C@@]23[C@H]1CC[C@@H](C)[C@@H]2CC[C@@]1(C)O[C@@H]31` [Arteannuin B], 2.2%.
On to `O=C(CO)[C@@H](O)[C@H](O)[C@H](O)CO` [Fructose], for which the “OC43 Inhibition rate” value (OC43 Inhibition rate, 24 h) is reported as -0.7%.
In the case of `COc1cc2c(cc1O)CCN1Cc3c(ccc(OC)c3OC)C[C@@H]21` [Corypalmine], the “OC43 Inhibition rate” value was 2.8%.
Same read-out and setting: to `C=C(CC(=O)O)C(=O)O` [Itaconic acid] belongs 6.9%; to `CC(=O)O[C@@H]1[C@H]2[C@H]3C[C@H]4C5=Nc6ccccc6[C@]51C[C@@H]2N4[C@H](C)C3C=O` (some centres unmarked) [Perakine], 1.7%.
Still for that read-out and setting: to `Cc1c(O)c(C)c2c(c1O)C(=O)C[C@@H](c1ccc(O)cc1)O2` [Farrerol] belongs 1.4%.
The same measure, in the same setting: to `CC(C)=CCC1=C(O)C(=O)c2ccccc2C1=O` [Lapachol] belongs 27.9%; to `O=C(O)c1c(O)cc(O)cc1O` [2,4,6-Trihydroxybenzoic acid], 0.8%.
Consider `O=C(OC[C@H]1O[C@@H](OC(=O)c2cc(O)c(O)c(O)c2)[C@H](OC(=O)c2cc(O)c(O)c(O)c2)[C@@H](OC(=O)c2cc(O)c(O)c(O)c2)[C@@H]1OC(=O)c1cc(O)c(O)c(O)c1)c1cc(O)c(O)c(O)c1` [Pentagalloylglucose], for which the “OC43 Inhibition rate” value is on record as 0.3%.
Still for that read-out and setting: to `CCCCC/C=C/C=C/C=O` [trans,trans-2,4-Decadienal] belongs -1.8%; to `CN[C@@H]1[C@@H](O[C@H]2O[C@H](CO)[C@@H](N)[C@H](O)[C@H]2O)O[C@H]2C[C@@H](N)[C@@H](O[C@H]3[C@H](O)[C@@H](O)[C@H](N)C[C@@H]3N)O[C@@H]2[C@@H]1O` [Apramycin (sulfate)], -0.2%.
Take `C=CCc1ccc(O)c(-c2ccc(OC)c(CC=C)c2)c1` [4-O-Methyl honokiol]: the “OC43 Inhibition rate” value is given as 1.6%.
The same measure, in the same setting: then `COC(=O)C1=CO[C@@H](O)[C@@H]2C(CO)=CC[C@H]12` [Genipin], with 0.1%; and `O=c1c2c3c(ccc2cc2n1CCc1cc4c(cc1-2)OCO4)OCO3` [8-Oxocoptisine], with -0.2%; and `C[C@@H]1O[C@@H](O[C@@H]2[C@@H](O)[C@H](OCCc3ccc(O)c(O)c3)O[C@H](COC(=O)/C=C/c3ccc(O)c(O)c3)[C@H]2O)[C@H](O)[C@H](O)[C@H]1O` [Isoacteoside], with -1%.
The same measure, in the same setting: then `O=C(/C=C/c1ccc(O)c2c1[C@H](C(=O)O)[C@@H](c1ccc(O)c(O)c1)O2)O[C@H](Cc1ccc(O)c(O)c1)C(=O)O` [Lithospermic acid], with -1.1%; and `OC1OC[C@@H](O[C@@H]2OC[C@@H](O[C@@H]3OC[C@@H](O)[C@H](O)[C@H]3O)[C@H](O)[C@H]2O)[C@H](O)[C@H]1O` (some centres unmarked) [Xylotriose], with -0.2%; and `CC(C)[C@]12O[C@H]1[C@@H]1O[C@]13[C@]1(O[C@H]1C[C@H]1C4=C(CC[C@@]13C)C(=O)OC4)[C@@H]2O` [Triptolide], with 10.5%.
Still for that read-out and setting: then `CCCCC/C=C/C=C/C(=O)NCC(C)C` [Pellitorine], with 5.3%; and `O=C1C[C@@H](c2ccc(O)cc2)Oc2cc(O[C@@H]3O[C@H](CO)[C@@H](O)[C@H](O)[C@H]3O)cc(O)c21` [Prunin], with 0.7%.
As to `Nc1ccncc1O` [3-Hydroxy-4-aminopyridine], the “OC43 Inhibition rate” value came to 0.3%.
The same measure, in the same setting: then `C=CCSSCC=C` [Diallyl disulfide], with -0.2%; and `CC(=O)c1cccc(O)c1` [3-Hydroxyacetophenone], with -0.1%.
On the same count and under the same terms, to `Cc1cc2nc3c(=O)[nH]c(=O)nc-3n(C[C@H](O)[C@H](O)[C@H](O)CO)c2cc1C` [Riboflavin] belongs 0%; to `C[C@H](O)C(=O)O` [L-Lactic acid], 0%.
In the case of `C[C@H](CCC(=O)O)[C@H]1CC[C@H]2[C@@H]3CC[C@@H]4C[C@H](O)CC[C@]4(C)[C@H]3C[C@H](O)[C@]12C` [Deoxycholic acid], the “OC43 Inhibition rate” value (OC43 Inhibition rate, 24 h) is listed as -0.7%.
For the compound `CCCCCCCCCCCCCC1=C(O)C(=O)C=C(O)C1=O` [Rapanone], the “OC43 Inhibition rate” value stood at 5.4%.
The same measure, in the same setting: then `NC1(C(=O)O)CC1` [1-Aminocyclopropane-1-carboxylic acid], with 2.9%; and `COc1ccc(-c2cc(=O)c3c(O)c(OC)c(OC)c(OC)c3o2)cc1` [Gardenin B], with 0.1%.
Still for that read-out and setting: then `Oc1cc(O)c2c(c1)O[C@]1(c3ccc(O)c(O)c3)Oc3cc(O)c4c(c3[C@H]2C1O)OC(c1ccc(O)c(O)c1)C(O)C4` (some centres unmarked) [Procyanidin A1], with 13.4%.
As to `CC(C)(CO)[C@@H](O)C(=O)NCCC(=O)O` [D-Pantothenic acid (hemicalcium salt)], under “OC43 Inhibition rate, 24 h”, the “OC43 Inhibition rate” value is reported as 0.1%.
Regarding `C[C@H]1[C@H](C)CC[C@]2(C(=O)O)CC[C@]3(C)C(=CC[C@@H]4[C@@]5(C)CC[C@H](O)C(C)(C)[C@@H]5CC[C@]43C)[C@H]12` [Ursolic acid], the “OC43 Inhibition rate” value is listed as -1.2%.
As for `O=C(O)[C@@H]1C[C@@H](O)CN1` [L-Hydroxyproline,BioReagent, suitable for cell culture], the “OC43 Inhibition rate” value amounted to 1.3%.
